# Results are given in words; binding and its absence hold for the method and conditions named. Some binding calls cover weakened binding; strength is not graded here.
# T1: BcGabija GajA (Bacillus cereus) (UniProt J8H9C1)
# T1 sequence: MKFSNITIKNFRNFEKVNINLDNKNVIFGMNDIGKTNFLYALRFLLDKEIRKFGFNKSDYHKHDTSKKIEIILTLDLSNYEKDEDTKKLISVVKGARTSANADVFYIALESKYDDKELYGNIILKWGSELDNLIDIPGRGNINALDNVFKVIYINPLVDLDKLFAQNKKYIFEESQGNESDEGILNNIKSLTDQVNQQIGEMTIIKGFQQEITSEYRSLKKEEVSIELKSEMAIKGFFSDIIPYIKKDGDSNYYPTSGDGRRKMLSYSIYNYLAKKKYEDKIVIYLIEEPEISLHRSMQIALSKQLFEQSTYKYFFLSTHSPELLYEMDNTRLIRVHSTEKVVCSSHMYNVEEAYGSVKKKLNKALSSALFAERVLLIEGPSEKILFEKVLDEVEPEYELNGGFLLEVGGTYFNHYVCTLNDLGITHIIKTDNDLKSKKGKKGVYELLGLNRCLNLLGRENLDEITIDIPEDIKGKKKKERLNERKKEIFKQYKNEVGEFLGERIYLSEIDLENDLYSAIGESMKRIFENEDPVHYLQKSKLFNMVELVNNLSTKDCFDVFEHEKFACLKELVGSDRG
# B1: BcGabija GajB (protein, UniProt J8HQ06 1-494)
# chain: MSREQIIKDGGNILVTAGAGSGKTTILVSKIEADLKENKTHYSIAAVTFTNKAAKEIEGRLGYSSRGNFIGTNDGFVESEIIRPFIKDAFGNDYPDNFTAEYFDNQFASYDKGLQVLKYQNILGTYSNPKKNFKFQLALDILKKSLVARQYIFSKYFKIFIDEYQDSDKDMHNLFMYLKDQLKIKLFIVGDPKQSIYIWRGAEPENFNGLIENSTDFNKYHLTSNFRCCQDIQNYSNLFNEETRSLIKEKNEVQNVISIADDMPISDILLKLTEEKQVLNIEAELVILVRRRNQAIEIMKELNEEGFNFIFIPQTPLDRATPNATLLKEVIKYVKNDRYSIYDLAAEIVGNLSSREIKEIQKIINELLVPNINQVLINQVLINLFAKLEITLDTREITAFTEVMMTNEFDIAFDTNEYLHKIFTVHSAKGLEFNQVIITASDYNVHYNRDTNEHYVATTRAKDKLIVIMDNKKYSDYIETLMKELKIKNIIKSI
# Biological target: T1, BcGabija GajA (Bacillus cereus)
# Assay: co-purification
binder,measurement,value
B1,binding,binds

# From publication doi:10.1101/2025.07.10.664194
